Out of some 580,000 compounds screened, about 6,100 (1.1%) were called active. This list was built around the results that the source calls inconclusive (neither active nor inactive); the mix of calls is not that of the screen. Calls follow the shape of the dose curve; as a rule, active = well fitted inhibition curve with a large enough effect; inconclusive = small, poorly fitted or top-dose-only effect, or another doubt; inactive = no such curve, though single readings can be large or run the other way. Where the call is inconclusive, the potency comes from a doubtful curve fit.
These compounds were tested against Polyunsaturated fatty acid lipoxygenase ALOX12 (Homo sapiens) (UniProt P18054) (assay: Primary qHTS assay for inhibitors of human arachidonate 12S-lipoxygenase (ALOX12): Round 2). Details: purified 12hLO, xylenol orange hydroperoxide absorbance; activity change, negative = inhibition: at 108 µM (top of the series) unless noted.
How it was run: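 Hydroperoxide product was detected by ferrous iron/xylenol orange as the 573 to 405 nm absorbance ratio. Arachidonic acid at 40 uM (final) was turned over for 30 min at room temperature by 150 nM human 12hLO, pH 7.0 Hepes buffer, after 15 min compound preincubation.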
% is scaled to controls: 0 for no effect and ±100 for the full control effect; potency is read from the fitted curve at half-maximal effect.

Protein sequences, listed by entry. Tags and fused reporters are not part of them. Lines headed by an entry give the natural chain unless they say otherwise; changes in a name come on top.
UniProt P18054: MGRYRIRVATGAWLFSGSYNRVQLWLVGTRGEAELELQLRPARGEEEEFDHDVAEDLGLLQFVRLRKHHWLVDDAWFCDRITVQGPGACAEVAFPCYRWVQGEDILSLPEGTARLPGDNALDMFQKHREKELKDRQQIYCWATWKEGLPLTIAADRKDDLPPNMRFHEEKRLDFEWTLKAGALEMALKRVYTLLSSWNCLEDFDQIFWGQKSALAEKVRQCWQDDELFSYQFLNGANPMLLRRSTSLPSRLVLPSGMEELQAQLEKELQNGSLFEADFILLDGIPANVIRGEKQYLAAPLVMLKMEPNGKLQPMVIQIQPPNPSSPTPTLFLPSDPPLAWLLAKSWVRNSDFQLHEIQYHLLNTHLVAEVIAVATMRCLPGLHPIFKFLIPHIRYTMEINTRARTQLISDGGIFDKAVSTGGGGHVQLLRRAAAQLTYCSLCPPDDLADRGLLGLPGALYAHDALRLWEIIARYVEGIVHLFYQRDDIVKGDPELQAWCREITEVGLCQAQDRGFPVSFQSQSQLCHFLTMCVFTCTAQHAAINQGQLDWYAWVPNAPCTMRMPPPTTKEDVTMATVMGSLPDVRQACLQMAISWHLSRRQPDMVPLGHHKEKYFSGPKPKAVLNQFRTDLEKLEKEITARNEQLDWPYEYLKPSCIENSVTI

SMILES | Potency | activity change, negative = inhibition
N#Cc1ccc(OCCSCc2cccc(F)c2)cc1 | inconclusive: 35.5 µM [inhibitor, partial curve, poor fit] | –
O=C(NC1CC1)c1ccc2nnc(-c3ccc(F)cc3)n2c1 | – | inactive: 5.04% [at 12.5 µM]
CC(=O)C1=CCC(c2ccc(Cl)c(Cl)c2)N(S(=O)(=O)c2ccc(C)cc2)C1 (centres undefined) | – | inactive: -10.3%
Cc1c(C(=O)OCC2CCCO2)[nH]c2c1C(=O)CC(c1ccc(N(C)C)cc1)C2 (centres undefined) | active: 6.31 µM | –
CC(=NNC(=S)Nc1cccc(C)c1)c1ccccn1 | inconclusive: 44.7 µM [inhibitor, partial curve, poor fit] | –
COc1cc2c(c(OC)c1OC)-c1c(cc3c(c1OC)OCO3)CC(C)C(C)C2 (centres undefined) | – | inactive: 12.9%
Cc1ccc(NC(=O)C(=O)c2c[nH]c3ccccc23)cc1Cl | inconclusive: 126 µM [inhibitor, single point] | –
COc1ccc(Nc2nc(C(=O)OCC(=O)c3cccc(OC)c3)cs2)cc1 | inconclusive: 3.16 µM [inhibitor, full curve, poor fit] | –
Cc1ccc(N2C(=O)C3Sc4[nH]c(=O)sc4C(c4ccccc4)C3C2=O)cc1 (centres undefined) | inconclusive: 44.7 µM [inhibitor, single point] | –
Oc1ccc(C2N3CC4(c5ccccc5)CN2CC(c2ccccc2)(C3)C4O)cc1 (centres undefined) | inconclusive: 31.6 µM [inhibitor, partial curve, poor fit] | –
Cc1ccccc1CN1C[C@@H]2C[C@H]1C(=O)N(C)c1ccccc1O2 | – | inactive: 14.4% [at 176 µM]
COc1ccc(N2CCCCS2(=O)=O)cc1S(=O)(=O)NCc1ccco1 | inconclusive: 3.98 µM [inhibitor, full curve, poor fit] | –
O=C(NCC1CCCN1S(=O)(=O)c1cccs1)c1ccc(Cl)cc1 (centres undefined) | inconclusive: 112 µM [inhibitor, single point] | –
COc1cccc(CNC(=O)c2nc(-c3ccccc3)oc2C)c1 | – | inactive: -19.2%
Cc1cc(C)c(-c2csc(Cc3nc(-c4cc5ccccc5oc4=O)cs3)n2)cc1C | – | inactive: 5.66%
Cc1ccc(NC(=O)CSc2cccc3cccnc23)c(C)c1 | inconclusive: 70.8 µM [inhibitor, partial curve, poor fit] | –
CC(=O)c1ccc(N2CCN(c3ccc(S(=O)(=O)NCCN(C)C)cc3[N+](=O)[O-])CC2)cc1 | inconclusive: 126 µM [inhibitor, single point] | –
Cc1cc(C)c2[nH]c(C(=O)Nc3ccc4c(c3)OCO4)cc2c1 | inconclusive: 28.2 µM [inhibitor, partial curve, poor fit] | –
O=C(NC1=NCCS1)c1ccncc1 | inconclusive: 28.2 µM [inhibitor, single point] | –
COc1ccccc1OCCn1cc(/C=N/NC(N)=S)c2ccccc21 | inconclusive: 50.1 µM [inhibitor, partial curve, poor fit] | –
CCOC(=O)c1c(O)cc(C)cc1Nc1ccccc1 | inconclusive: 79.4 µM [inhibitor, partial curve, poor fit] | –
COc1ccc(C(=O)OCC(=O)NCCCc2ccccc2)c(OC)c1 | inconclusive: 12.6 µM [inhibitor, partial curve, poor fit] | –

Record cards, as listed above:
COc1cc2c(c(OC)c1OC)-c1c(cc3c(c1OC)OCO3)CC(C)C(C)C2 (centres undefined) in the list: activity change, negative = inhibition: inactive: 12.9%
N#Cc1ccc(OCCSCc2cccc(F)c2)cc1 in the list: Potency: inconclusive: 35.5 µM [inhibitor, partial curve, poor fit]

Next compounds follow:

SMILES | Potency | activity change, negative = inhibition
COc1ccccc1CNC(=O)COC(=O)CSc1ccc(F)cc1 | inconclusive: 89.1 µM [inhibitor, partial curve, poor fit] | –
CCOC(=O)c1cc(S(=O)(=O)N2CCN(c3cccc(OC)c3)CC2)[nH]n1 | inconclusive: 89.1 µM [inhibitor, partial curve, poor fit] | –
COCCNc1ncnc2c1cnn2Cc1ccc(Cl)cc1 | inconclusive: 89.1 µM [inhibitor, single point] | –
CC(C)c1nnc(NC(=O)C2CCN(C(=O)Nc3ccc(Cl)cc3)CC2)s1 | – | inactive: -28.5%
Cc1ccc(OCC(=O)NNC(=S)NC(=O)C(C)(C)C)c(Br)c1 | inconclusive: 112 µM [inhibitor, single point] | –
CC(C)(C)c1ccccc1NC(=O)CN1C(=O)NC(Cc2ccccc2)C1=O (centres undefined) | inconclusive: 100 µM [inhibitor, single point] | –
O=c1oc2ccccc2cc1-c1csc(Cc2nc(-c3ccc(Cl)cc3)cs2)n1 | – | inactive: 7.81%
COc1cc(C2CC(=O)N3CN(Cc4ccccc4)CSC3=C2C#N)ccc1OCc1ccccc1 (centres undefined) | active: 14.1 µM | –
Cc1ccc(C)c(NC(=O)C(C)CC2COCCO2)c1 (centres undefined) | inconclusive: 100 µM [inhibitor, partial curve, poor fit] | –
C#CCN(C)C(=O)C[C@@H]1c2nc(-c3cccnc3)sc2C[C@@H]2[C@](C)(CO)[C@H](O)CC[C@]21C | inconclusive: 89.1 µM [inhibitor, partial curve, poor fit] | –
COc1ccc(-c2c(NC(=O)c3ccco3)n(-c3ccc(C)cc3)nc(C)c2=O)cc1 | inconclusive: 35.5 µM [inhibitor, single point] | –
CCN(CC)CC1CCN(C(=O)CCc2c[nH]c3ccccc23)CC1 | inconclusive: 39.8 µM [inhibitor, partial curve, poor fit] | –
CC(C)c1ccc(NC(=O)N[C@H]2CC[C@@]34CCCN3C(=O)CCC[C@H]4C2Cc2ccccc2)cc1 (some centres undefined) | inconclusive: 39.8 µM [inhibitor, single point] | –
O=C(Cc1cccc(F)c1)N1CCC(Cc2nc(C3CCOCC3)no2)CC1 | – | inactive: -7.05%
CC[C@H](C)[C@H](NC(N)=O)C(=O)NCCc1ccc(OC)cc1 | – | inactive: -1.77%
CC1(C)C(c2ccco2)=[N+]([O-])C2(CCCCC2=O)N1O (centres undefined) | inconclusive: 79.4 µM [inhibitor, partial curve, poor fit] | –
CCCc1cc(=O)[nH]c(SCC(=O)N2N=C(c3ccc(Cl)cc3)CC2c2ccco2)n1 (centres undefined) | inconclusive: 44.7 µM [inhibitor, partial curve, poor fit] | –
C[C@@H]1CN([C@@H](C)CO)C(=O)c2c(c3ccccc3n2C)-c2ccccc2CO[C@H]1CN(C)S(=O)(=O)c1ccc(C#N)cc1 | inconclusive: 100 µM [inhibitor, single point] | –
Brc1c(CSc2nc3ccccc3o2)nc2ccccn12 | inconclusive: 50.1 µM [inhibitor, single point] | –
Clc1ccc(N=c2ssnc2Cl)cc1 | inconclusive: 1 µM [inhibitor, full curve, poor fit] | –
Cc1c(NC(=O)C(C)(C)c2ccccc2)cccc1C(=O)N1CCc2sccc2C1 | inconclusive: 112 µM [inhibitor, single point] | –
Cc1nn(CCC(=O)Nc2ccc(C(C)C)cc2)c(C)c1S(=O)(=O)N1CCC(C)CC1 | inconclusive: 44.7 µM [inhibitor, partial curve, poor fit] | –

SMILES | Potency | activity change, negative = inhibition
COc1cc(N2CCC(O)CC2)ccc1Nc1cc(Nc2ccccc2S(=O)(=O)C(C)C)c2cc[nH]c2n1 | inconclusive: 89.1 µM [inhibitor, partial curve, poor fit] | –
O=C(COC(=O)CNC(=O)C1CCCCC1)NCc1ccc(Cl)cc1 | inconclusive: 112 µM [inhibitor, single point] | –
COc1ccc(-n2c(O)c(C=Nc3ccccc3)c3ccccc3c2=O)cc1OC | – | inactive: 5.91%
COCCN1CCOc2nc(-c3cc4ccccc4o3)ncc2C1=O | – | inactive: 10.1% [at 176 µM]
C=CCn1c(-c2sc3nc(C)cc(C)c3c2N)n[nH]c1=S | inconclusive: 126 µM [inhibitor, partial curve, poor fit] | –
CCOC(=O)c1ccc(CC(=O)c2ccc(O)c(O)c2O)o1 | inconclusive: 2.82 µM [inhibitor, full curve, poor fit] | –
COc1ccccc1C(=O)OCC(=O)c1ccc(CNC(C)=O)s1 | – | inactive: 16.9%
Nc1cccc(N2C(=O)c3cccc4c(N)ccc(c34)C2=O)c1 | – | inactive: 0%
Cc1ccc2c(c1)-n1c(nc3ccccc3c1=O)C(Cc1ccc(O)cc1)NC2=O (centres undefined) | inconclusive: 50.1 µM [inhibitor, partial curve, poor fit] | –
CSc1nc(/C=C2\C=Nc3ccccc32)c(O)n1C | inconclusive: 3.16 µM [inhibitor, full curve] | –
COC[C@H]1CCCN1C(=O)CC[C@@H]1CNC(=O)[C@@H]2C[C@H](NC(=O)c3ccccc3)CN12 | inconclusive: 28.2 µM [inhibitor, full curve] | –
O=C(O)C/C(=C/c1cc(Br)cs1)c1nc2ccccc2o1 | inconclusive: 44.7 µM [inhibitor, partial curve, poor fit] | –
COC(=O)CCCn1cc(CN2CC(N3CCN(C)CC3)CS2(=O)=O)nn1 (centres undefined) | inconclusive: 20 µM [inhibitor, full curve, poor fit] | –
Cc1ccc(S(=O)(=O)N(C)C)cc1NC(=S)Nc1cccc2ccccc12 | inconclusive: 56.2 µM [inhibitor, partial curve, poor fit] | –
CCOC(=O)c1ccc(NC(=O)N2CCN(Cc3nc(-c4ccc(C)cc4)oc3C)CC2)cc1 | inconclusive: 126 µM [inhibitor, single point] | –
COP(=O)(OC)c1nc(-c2ccc([N+](=O)[O-])cc2)oc1NCc1ccc(C)cc1 | inconclusive: 44.7 µM [inhibitor, partial curve] | –
CC(=O)c1c(C)c(C)cc(C)c1C | – | inactive: 36.3%
Cn1c(CSCc2ccc(F)cc2)nnc1SCC(=O)N1CCN(c2ccccc2)CC1 | – | inactive: -2.4%
CCCCOC(=O)Cn1nnc2sc(-c3ccccc3)cc2c1=O | inconclusive: 50.1 µM [inhibitor, full curve, poor fit] | –
COc1ccccc1Oc1nnnn1-c1ccc(C(N)=O)cc1 | – | inactive: 14.5%

Grouped by structure, the compounds so far containing an NH in an aromatic ring
SMILES | Potency | activity change, negative = inhibition
Cc1c(C(=O)OCC2CCCO2)[nH]c2c1C(=O)CC(c1ccc(N(C)C)cc1)C2 (centres undefined) | active: 6.31 µM | –
Cc1ccc(NC(=O)C(=O)c2c[nH]c3ccccc23)cc1Cl | inconclusive: 126 µM [inhibitor, single point] | –
Cc1ccc(N2C(=O)C3Sc4[nH]c(=O)sc4C(c4ccccc4)C3C2=O)cc1 (centres undefined) | inconclusive: 44.7 µM [inhibitor, single point] | –
Cc1cc(C)c2[nH]c(C(=O)Nc3ccc4c(c3)OCO4)cc2c1 | inconclusive: 28.2 µM [inhibitor, partial curve, poor fit] | –
CCOC(=O)c1cc(S(=O)(=O)N2CCN(c3cccc(OC)c3)CC2)[nH]n1 | inconclusive: 89.1 µM [inhibitor, partial curve, poor fit] | –
CCN(CC)CC1CCN(C(=O)CCc2c[nH]c3ccccc23)CC1 | inconclusive: 39.8 µM [inhibitor, partial curve, poor fit] | –
CCCc1cc(=O)[nH]c(SCC(=O)N2N=C(c3ccc(Cl)cc3)CC2c2ccco2)n1 (centres undefined) | inconclusive: 44.7 µM [inhibitor, partial curve, poor fit] | –
COc1cc(N2CCC(O)CC2)ccc1Nc1cc(Nc2ccccc2S(=O)(=O)C(C)C)c2cc[nH]c2n1 | inconclusive: 89.1 µM [inhibitor, partial curve, poor fit] | –
C=CCn1c(-c2sc3nc(C)cc(C)c3c2N)n[nH]c1=S | inconclusive: 126 µM [inhibitor, partial curve, poor fit] | –
